From paper PMC12081465
These are yes or no findings as the source states them, for the method shown. In cells and extracts the contact can be indirect. Some entries that bind do so weakly or less than the wild type.

Amino acid sequences for entries named in this document (tags omitted).
UniProt O43809: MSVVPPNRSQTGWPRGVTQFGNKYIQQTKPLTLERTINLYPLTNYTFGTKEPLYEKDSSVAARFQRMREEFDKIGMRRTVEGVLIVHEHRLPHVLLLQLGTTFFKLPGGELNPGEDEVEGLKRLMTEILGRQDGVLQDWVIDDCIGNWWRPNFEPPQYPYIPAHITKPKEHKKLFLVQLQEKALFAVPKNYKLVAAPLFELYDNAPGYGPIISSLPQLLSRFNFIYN
UniProt Q16630: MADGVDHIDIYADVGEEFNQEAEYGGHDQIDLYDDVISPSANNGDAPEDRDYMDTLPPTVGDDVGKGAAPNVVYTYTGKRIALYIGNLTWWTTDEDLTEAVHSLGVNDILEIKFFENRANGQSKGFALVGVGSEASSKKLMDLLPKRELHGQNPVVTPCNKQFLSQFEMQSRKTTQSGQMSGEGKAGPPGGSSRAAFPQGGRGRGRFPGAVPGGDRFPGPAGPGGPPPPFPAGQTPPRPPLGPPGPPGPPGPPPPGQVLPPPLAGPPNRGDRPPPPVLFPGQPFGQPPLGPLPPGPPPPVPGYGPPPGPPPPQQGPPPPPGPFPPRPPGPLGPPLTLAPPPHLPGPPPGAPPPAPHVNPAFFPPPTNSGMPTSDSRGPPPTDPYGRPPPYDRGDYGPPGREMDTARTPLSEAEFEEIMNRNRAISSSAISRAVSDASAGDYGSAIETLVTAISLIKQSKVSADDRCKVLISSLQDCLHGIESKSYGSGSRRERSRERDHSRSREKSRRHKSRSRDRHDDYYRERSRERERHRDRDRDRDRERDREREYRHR

Molecular target: NUDT21 (human (endogenous in THP-1)) (UniProt O43809)
Test: co-IP

- binding: binds
Substance: CPSF6 (from UniProt Q16630 1-551)
